Experimental data from doi:10.1101/2023.06.29.546996.
Read-outs that look alike come from different tables or passages of the source. These are yes or no findings as the source states them, for the method shown. For some of these results: Binding seen in cells or lysates may run through a third protein. Some results given as binding are weak or reduced against the parent protein; the word gives no strength. For some of these results: Tags and fused reporters may be left off the sequences shown.

Chains of the proteins cited; added tags and fusions are not shown. Residues count along the entry.
UniProt P34802, residues 52-371: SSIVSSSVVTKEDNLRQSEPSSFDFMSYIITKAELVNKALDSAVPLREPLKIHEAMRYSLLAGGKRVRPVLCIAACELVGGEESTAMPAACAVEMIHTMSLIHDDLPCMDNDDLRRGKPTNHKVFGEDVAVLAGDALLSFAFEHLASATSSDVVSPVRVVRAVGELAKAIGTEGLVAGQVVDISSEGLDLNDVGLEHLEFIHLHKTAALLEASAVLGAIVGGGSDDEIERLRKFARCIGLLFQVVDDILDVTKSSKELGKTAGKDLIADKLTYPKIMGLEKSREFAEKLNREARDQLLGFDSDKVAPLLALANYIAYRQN

Experiments:
[1] = molecular target: T1, PSY-130 (P178S) fused to the C-terminal ubiquitin moiety (Cub) (Arabidopsis thaliana) (UniProt P37271); test: two-hybrid
T1 sequence: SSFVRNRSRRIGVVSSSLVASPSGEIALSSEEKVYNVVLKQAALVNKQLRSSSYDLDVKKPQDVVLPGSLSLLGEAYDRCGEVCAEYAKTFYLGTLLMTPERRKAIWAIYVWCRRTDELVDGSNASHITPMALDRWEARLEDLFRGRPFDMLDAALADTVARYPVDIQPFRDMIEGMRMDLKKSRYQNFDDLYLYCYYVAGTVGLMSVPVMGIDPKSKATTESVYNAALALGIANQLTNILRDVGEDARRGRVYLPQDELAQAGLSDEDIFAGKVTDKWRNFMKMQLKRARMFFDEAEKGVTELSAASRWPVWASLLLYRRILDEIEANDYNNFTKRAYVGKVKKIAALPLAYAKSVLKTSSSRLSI

[2] = molecular target: T2, PSY-4 (M266I) fused to the C-terminal ubiquitin moiety (Cub) (Arabidopsis thaliana) (UniProt P37271); test: two-hybrid
T2 sequence: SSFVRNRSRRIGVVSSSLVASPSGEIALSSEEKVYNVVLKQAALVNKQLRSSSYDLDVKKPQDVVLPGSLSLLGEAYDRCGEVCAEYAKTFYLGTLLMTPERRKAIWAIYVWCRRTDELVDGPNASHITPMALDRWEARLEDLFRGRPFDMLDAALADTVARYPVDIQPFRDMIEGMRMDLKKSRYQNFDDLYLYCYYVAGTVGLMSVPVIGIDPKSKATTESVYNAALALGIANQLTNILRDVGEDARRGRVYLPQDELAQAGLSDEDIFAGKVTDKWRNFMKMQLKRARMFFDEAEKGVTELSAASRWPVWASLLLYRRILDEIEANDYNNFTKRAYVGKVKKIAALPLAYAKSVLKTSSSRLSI

[3] = molecular target: T3, PSY-90 (A352T) fused to the C-terminal ubiquitin moiety (Cub) (Arabidopsis thaliana) (UniProt P37271); test: two-hybrid
T3 sequence: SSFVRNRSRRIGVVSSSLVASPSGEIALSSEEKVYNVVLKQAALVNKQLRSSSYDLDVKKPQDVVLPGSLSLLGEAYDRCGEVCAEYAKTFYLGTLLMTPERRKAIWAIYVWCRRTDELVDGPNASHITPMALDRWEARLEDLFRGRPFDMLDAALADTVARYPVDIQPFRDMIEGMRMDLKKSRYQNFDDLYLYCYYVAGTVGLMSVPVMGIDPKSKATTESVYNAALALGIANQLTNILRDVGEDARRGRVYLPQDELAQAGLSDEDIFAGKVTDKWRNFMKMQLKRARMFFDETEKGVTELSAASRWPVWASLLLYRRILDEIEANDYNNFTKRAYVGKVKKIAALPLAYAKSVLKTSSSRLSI

[4] = molecular target: T4, wild-type PSY (PHYTOENE SYNTHASE) fused to the C-terminal ubiquitin moiety (Cub) (Arabidopsis thaliana) (UniProt P37271); test: two-hybrid
T4 sequence: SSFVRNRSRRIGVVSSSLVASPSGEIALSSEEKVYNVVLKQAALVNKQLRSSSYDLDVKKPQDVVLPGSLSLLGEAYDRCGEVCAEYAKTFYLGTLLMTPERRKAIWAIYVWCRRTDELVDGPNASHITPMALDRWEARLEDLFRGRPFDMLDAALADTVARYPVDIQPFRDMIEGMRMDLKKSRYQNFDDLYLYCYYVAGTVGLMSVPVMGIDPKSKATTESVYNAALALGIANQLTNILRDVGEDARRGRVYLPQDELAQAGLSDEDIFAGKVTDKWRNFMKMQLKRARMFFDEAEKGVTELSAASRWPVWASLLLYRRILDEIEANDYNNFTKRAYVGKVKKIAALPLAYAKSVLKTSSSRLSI

[5] = molecular target: T1, PSY-130 (P178S) fused to the C-terminal ubiquitin moiety (Cub) (Arabidopsis thaliana); test: two-hybrid; remark: listed apart in the source
[6] = molecular target: T2, PSY-4 (M266I) fused to the C-terminal ubiquitin moiety (Cub) (Arabidopsis thaliana); test: two-hybrid; remark: listed apart in the source
[7] = molecular target: T4, wild-type PSY (PHYTOENE SYNTHASE) fused to the C-terminal ubiquitin moiety (Cub) (Arabidopsis thaliana); test: two-hybrid; remark: listed apart in the source
[8] = molecular target: T5, endogenous PSY (PHYTOENE SYNTHASE) of wild-type sequence from Arabidopsis leaves (Arabidopsis thaliana (endogenous in leaves)) (UniProt P37271); test: co-IP
T5 sequence: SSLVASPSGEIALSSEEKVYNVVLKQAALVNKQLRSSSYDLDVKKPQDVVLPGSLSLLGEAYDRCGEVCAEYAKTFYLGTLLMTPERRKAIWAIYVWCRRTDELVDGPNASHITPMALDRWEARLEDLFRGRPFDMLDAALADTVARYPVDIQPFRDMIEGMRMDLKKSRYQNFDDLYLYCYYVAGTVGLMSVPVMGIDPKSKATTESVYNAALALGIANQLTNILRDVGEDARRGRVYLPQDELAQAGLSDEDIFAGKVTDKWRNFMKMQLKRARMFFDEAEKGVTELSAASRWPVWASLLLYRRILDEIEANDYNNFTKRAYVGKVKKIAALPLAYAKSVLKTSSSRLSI

[9] = molecular target: T6, endogenous PSY-130 (P178S) from ccr2 psy-130 leaves (Arabidopsis thaliana (endogenous in leaves)) (UniProt P37271); test: co-IP
T6 sequence: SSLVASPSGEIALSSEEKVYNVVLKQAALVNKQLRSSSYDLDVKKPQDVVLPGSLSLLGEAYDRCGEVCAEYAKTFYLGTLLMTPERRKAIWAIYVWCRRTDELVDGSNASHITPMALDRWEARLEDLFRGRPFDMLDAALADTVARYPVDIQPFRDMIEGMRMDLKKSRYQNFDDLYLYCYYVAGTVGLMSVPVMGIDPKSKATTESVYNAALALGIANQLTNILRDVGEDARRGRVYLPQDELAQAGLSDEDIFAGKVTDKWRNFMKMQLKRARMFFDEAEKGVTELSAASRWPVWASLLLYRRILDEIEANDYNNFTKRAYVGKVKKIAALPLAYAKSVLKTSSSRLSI

[10] = molecular target: T7, endogenous PSY-4 (M266I) from ccr2 psy-4 leaves (Arabidopsis thaliana (endogenous in leaves)) (UniProt P37271); test: co-IP
T7 sequence: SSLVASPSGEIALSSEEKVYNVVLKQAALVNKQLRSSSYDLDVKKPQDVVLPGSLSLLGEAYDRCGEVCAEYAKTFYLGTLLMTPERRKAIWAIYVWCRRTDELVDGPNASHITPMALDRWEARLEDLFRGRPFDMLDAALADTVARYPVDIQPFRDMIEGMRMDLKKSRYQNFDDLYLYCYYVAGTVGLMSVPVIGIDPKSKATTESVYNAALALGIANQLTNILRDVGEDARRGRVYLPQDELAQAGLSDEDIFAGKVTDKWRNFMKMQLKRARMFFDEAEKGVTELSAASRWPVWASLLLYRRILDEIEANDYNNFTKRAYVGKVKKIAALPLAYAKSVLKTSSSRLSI

Measured: binding

Arabidopsis GGPP SYNTHASE 11 (AtGGPPS11) fused to the N-terminal ubiquitin moiety (Nub) (from UniProt P34802 52-371) (enzyme)
binds: [1] | [2] | [3] | [4]

B1: Arabidopsis ORANGE (AtOR) fused to the N-terminal ubiquitin moiety (Nub) (protein, UniProt Q9FKF4 56-307)
chain: ADKFASGFCIIEGPETVQDFAKMQLQEIQDNIRSRRNKIFLHMEEVRRLRIQQRIKNTELGIINEEQEHELPNFPSFIPFLPPLTAANLKVYYATCFSLIAGIILFGGLLAPTLELKLGIGGTSYADFIQSLHLPMQLSQVDPIVASFSGGAVGVISALMVVEVNNVKQQEHKRCKYCLGTGYLACARCSSTGALVLTEPVSAIAGGNHSLSPPKTERCSNCSGAGKVMCPTCLCTGMAMASEHDPRIDPFD
binds: [5] | [6] | [7]

B2: endogenous Arabidopsis ORANGE (AtOR) from leaves (protein, UniProt Q9FKF4 56-307)
chain: ADKFASGFCIIEGPETVQDFAKMQLQEIQDNIRSRRNKIFLHMEEVRRLRIQQRIKNTELGIINEEQEHELPNFPSFIPFLPPLTAANLKVYYATCFSLIAGIILFGGLLAPTLELKLGIGGTSYADFIQSLHLPMQLSQVDPIVASFSGGAVGVISALMVVEVNNVKQQEHKRCKYCLGTGYLACARCSSTGALVLTEPVSAIAGGNHSLSPPKTERCSNCSGAGKVMCPTCLCTGMAMASEHDPRIDPFD
binds: [8] | [9] | [10]
